Results are given in words; binding and its absence hold for the method and conditions named. Binding calls can cover weak binding; strength is not graded here.
Molecular target: SlAN2 (tomato (Solanum lycopersicum))
Assay: two-hybrid

- binding: binds
B1: SlHY5 (protein, UniProt Q9SM50 1-158)
chain: MQEQATSSIAASSLPSSSERSSSSALHHELKEGMESDDEIRRVPEMGGEATGTTSASGRDGVSAAGQAQPSAGTQRKRGRSPADKENKRLKRLLRNRVSAQQARERKKAYLIDLEARVKELETKNAELEERLSTLQNENQMLRHILKNTTAGAQEGRK

Source: publication doi:10.1101/2023.02.09.527816
